In the supplement of paper PMC12889115:
This is one part of the list. Values are raw readings; no control value is given beside them.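 In the initial screen, polymyxin B was used at a concentration that permeabilizes Salmonella's outer membrane but not its inner membrane. Maximum growth was set by DMSO wells with or without polymyxin B. Since plates varied, data were ranked per plate, and compounds giving the lowest OD600 advanced as hits.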

System: Salmonella enterica serovar Typhimurium SL1344
Experiment: bacterial growth OD600 after 18 h with compound and polymyxin B; higher = more bacterial growth (less inhibition)
Conditions: 50 µM, Mueller-Hinton broth

SMILES	bacterial growth OD600 (polymyxin B 1 µg/mL)	bacterial growth OD600 (polymyxin B 0.75 µg/mL)
OCCC1CN(Cc2cccn2-c2nccs2)CCN1Cc1ccccc1F (configuration not stated)	1.09	–
COc1cccc(-c2noc(-c3ccc(NC(C)(C)CO)nc3)n2)c1OC	–	0.537
Clc1cccnc1N1CCC(C2CCN(Cc3cccnc3)CC2)C1 (configuration not stated)	–	0.641
C#CCN(Cc1ccco1)C(=O)CCC1(Cc2cc(OC)ccc2F)CCC(=O)N1 (configuration not stated)	–	0.859
CSCC(=O)NC1CC(C)(C)Cc2c1cnn2-c1ccc(F)cc1 (configuration not stated)	–	0.551
CC(C)(C)NC(=O)C1CCCN(C2CCN(Cc3ccccc3)CC2)C1 (configuration not stated)	–	0.949
CC(=O)N[C@@H]1c2ccccc2C2(CCN(C(=O)c3n[nH]c4ccccc34)CC2)[C@H]1OCc1ccccc1	–	0.73
Cc1cc(C)cc(-n2ncc3c2CCCC3NC(=O)C(C)(C)O)c1 (configuration not stated)	–	0.404
O=C(c1coc(COc2ccc3c(c2)OCO3)n1)N1CCCC1	0.991	–
CCNC(=O)c1cn(C(C)CC)cc(C(=O)N2CCN(c3cccc(C(F)(F)F)c3)CC2)c1=O (configuration not stated)	–	0.79
C=CCCC(=O)NC1CCCc2c1cnn2-c1cc(C)cc(C)c1 (configuration not stated)	0.541	–
Cc1cccn2c(CNC(C)CCCC(C)(C)O)c(C(=O)N3CCCCC3)nc12 (configuration not stated)	0.878	–
O=C(NCc1c(F)cccc1F)c1ccc(OC2CCN(C(=O)C3CC3)CC2)cc1	0.826	–
COc1ccc(CC2(CCC(=O)N(C)Cc3csc(-c4cccs4)n3)CCC(=O)N2)c(F)c1 (configuration not stated)	–	0.609
O=C(C1=CCCCC1)N1CCCC(CO)(CCCc2ccccc2)C1 (configuration not stated)	0.715	–
Cc1ccc(CNC2CCCc3nc(-c4ccccc4)ncc32)o1 (configuration not stated)	–	0.739

SMILES	bacterial growth OD600 (polymyxin B 1 µg/mL)	bacterial growth OD600 (polymyxin B 0.75 µg/mL)
COc1ccc(CC2(CCC(=O)N3CCN(c4cc(Cl)ccc4C)CC3)CCC(=O)N2)c(F)c1 (configuration not stated)	–	0.004
Cc1nc(N2CCCC(NCc3ccccc3F)CC2)nc2ccc(F)cc12 (configuration not stated)	–	0.656
O=C(c1ccc2nc(C3CCCCC3)oc2c1)N1CCC(N2CCSCC2)CC1	0.817	–
C[C@@H]1CN(C2(C(=O)N[C@H]3CCCCNC3=O)Cc3ccccc3C2)C[C@H](C)O1	0.872	–
CCOC(=O)C1(Cc2ccc(F)cc2F)CCCN(C(=O)CNC(C)=O)C1 (configuration not stated)	0.937	–
C=CCC(=O)NC1CCCc2c1cnn2-c1ccc(C(C)(C)C)cc1 (configuration not stated)	0.012	–
O=C(CCOc1ccccc1)Nc1ccnn1C1CCN(CC2CC2)CC1	1.2	–
CCN1CCN(C2(C(=O)N3CCCC(COC)C3)Cc3ccccc3C2)CC1 (configuration not stated)	–	0.818
CC(CCCC(C)(C)O)Nc1nncc(-c2ccc(C(F)(F)F)cc2)n1 (configuration not stated)	–	0.285
COc1ccc(Cl)cc1NC(=O)CCC1CCCN(C(=O)CN2CCCCC2=O)C1 (configuration not stated)	0.943	–
O=C(Nc1cnn(-c2ccc(C(=O)N3CCC(Oc4cccnc4)CC3)cc2)c1)c1ccoc1	–	0.919
O=C(c1cccc2nccnc12)N1CCCC(Nc2ccc(F)c(F)c2)C1 (configuration not stated)	0.827	–
O=C(NC1CCCC1)c1cc(COc2ccc3c(c2)OCO3)[nH]n1	1.17	–
CN(C)c1ncc(CN2CCCC(CNS(=O)(=O)Cc3ccccc3)C2)s1 (configuration not stated)	–	0.865
Cc1ccc(Oc2ncccc2CNCc2c(F)cccc2Cl)cn1	0.871	–
O=C(CCC1CCCN(Cc2c[nH]cn2)C1)N1CCN(Cc2ccccc2)CC1 (configuration not stated)	0.566	–

Reformatted bar-delimited: part of the list above
SMILES | bacterial growth OD600 (polymyxin B 1 µg/mL) | bacterial growth OD600 (polymyxin B 0.75 µg/mL)
COc1ccc(CC2(CCC(=O)N(C)Cc3csc(-c4cccs4)n3)CCC(=O)N2)c(F)c1 (configuration not stated) | – | 0.609
O=C(C1=CCCCC1)N1CCCC(CO)(CCCc2ccccc2)C1 (configuration not stated) | 0.715 | –
